From publication PMC9144902, “Metal(II) Complexes of the Fluoroquinolone Fleroxacin: Synthesis, Characterization and Biological Profile” (Pharmaceutics, 2022)

What was measured:
[1] = system: CT DNA; experiment: Study of the DNA-interaction by cyclic voltammetry; type: binding, calf; conditions: shift upon CT DNA
Description: Cyclic voltammetry was used to study the interaction of the complexes with CT DNA. An intercalative interaction will induce a positive shift for the electrochemical potential(s) of metal oxidation/reduction, whereas, in the case of electrostatic interaction, a negative shift in the potential(s) may occur. The cyclic voltammograms of the complexes in a 1:2 DMSO:buffer solution (0.33 mM) were recorded in the absence and presence of the CT DNA solution (Figure S13). The predominant electrochemical feature for all complexes is a positive shift in the potential in the presence of CT DNA (ΔEpc/a = (–30)–(+127) mV). Consequently, the intercalative nature of the interaction of the complexes with DNA can be inferred from the presented data.
In order to evaluate further the redox behavior of the complexes, the corresponding equilibrium constants were calculated by determining the ratio Kr/Kox in accordance to Equation (S6), where Kox and Kr are the DNA-binding constants for the oxidized and reduced form, respectively, of the metal ions. For all complexes, the Kr/Kox ratio is close to or above 1 (Table 7), showing the selective binding of DNA to the […] form of the complexes. […]
S3.3 Study of the DNA –interaction by cyclic vol ta mmetry
Cyclic voltammetr y can be also used in order to calculate the corresponding equilibrium constant for the redox process. The ratio of the DNA–binding constants for the reduced (K r) and oxidized forms (Kox) of t he complex es (Kr/Kox) w as calculat ed according t o eq. S6:
Δ = = 0.059 × lo gEE E K oxoo o (eq. S6) […]
where Eo and Eo are the formal potentials of M(II)/M(I) redox couple in the fully bound and […]
free complexes, respectivel y. Kox and Kr are the binding constants for the binding of the oxidized and reduced species to DNA, respectivel y [S8] . […]

[2] = system: calf-thymus DNA (CT DNA); experiment: DNA-binding study by UV–vis absorption spectroscopy; conditions: + hyperchromism / − hypochromism

Row | SMILES | ΔEpa = Epa(b) − Epa(f) [1] | ΔEpc = Epc(b) − Epc(f) [1] | Band (ΔA/A0, Δλ): UV–vis band λmax, percentage of hyper-/hypochromism, blue/red shift upon addition of DNA [2]
1 | CN1CCN(c2c(F)cc3c(=O)c(C(=O)[O-])cn(CCF)c3c2F)CC1.CN1CCN(c2c(F)cc3c(=O)c(C(=O)[O-])cn(CCF)c3c2F)CC1.[Co+2].c1ccc(Nc2ccccn2)nc1 [complex 16, [Co(flrx)2(bipyam)]] | +21 mV | −12 mV | 287 (−5, −3); 323 (−6, −2) nm (%, nm)
2 | CN1CCN(c2c(F)cc3c(=O)c(C(=O)[O-])cn(CCF)c3c2F)CC1.[Cl-].[Cu+2].c1cnc2c(c1)ccc1cccnc12 [complex 8, [Cu(flrx)(phen)Cl]] | +77 mV | +5 mV | 293 (−31, −20); 326 (+1, −2) nm (%, nm)
3 | CN1CCN(c2c(F)cc3c(=O)c(C(=O)[O-])cn(CCF)c3c2F)CC1.CN1CCN(c2c(F)cc3c(=O)c(C(=O)[O-])cn(CCF)c3c2F)CC1.[Co+2].c1ccc(-c2ccccn2)nc1 [complex 15, [Co(flrx)2(bipy)]] | −8 mV | +6 mV | 288 (−3, −3); 331 (−8, −7) nm (%, nm)
4 | CN1CCN(c2c(F)cc3c(=O)c(C(=O)[O-])cn(CCF)c3c2F)CC1.CN1CCN(c2c(F)cc3c(=O)c(C(=O)[O-])cn(CCF)c3c2F)CC1.[Mn+2].c1ccc(Nc2ccccn2)nc1 [complex 10, [Mn(flrx)2(bipyam)]] | −13 mV | +11 mV | 271 (+3, +1); 317 (−5, −1) nm (%, nm)
5 | CN1CCN(c2c(F)cc3c(=O)c(C(=O)[O-])cn(CCF)c3c2F)CC1.CN1CCN(c2c(F)cc3c(=O)c(C(=O)[O-])cn(CCF)c3c2F)CC1.[Mn+2].c1ccc(-c2ccccn2)nc1 [complex 9, [Mn(flrx)2(bipy)]] | −20 mV | +17 mV | 286 (+4, −1); 334 (−11, −10) nm (%, nm)
6 | CN1CCN(c2c(F)cc3c(=O)c(C(=O)[O-])cn(CCF)c3c2F)CC1.CN1CCN(c2c(F)cc3c(=O)c(C(=O)[O-])cn(CCF)c3c2F)CC1.[Zn+2].c1ccc(-c2ccccn2)nc1 [complex 12, [Zn(flrx)2(bipy)]] | – | – | 290 (−15, −4); 332 (−7, −6) nm (%, nm)
7 | CN1CCN(c2c(F)cc3c(=O)c(C(=O)[O-])cn(CCF)c3c2F)CC1.CN1CCN(c2c(F)cc3c(=O)c(C(=O)[O-])cn(CCF)c3c2F)CC1.O.O.[Mn+2] [complex 2, [Mn(flrx)2(H2O)2]] | −11 mV | +6 mV | 291 (−22, −6); 322 (−2, +4) nm (%, nm)
8 | CN1CCN(c2c(F)cc3c(=O)c(C(=O)[O-])cn(CCF)c3c2F)CC1.CN1CCN(c2c(F)cc3c(=O)c(C(=O)[O-])cn(CCF)c3c2F)CC1.[Zn+2].c1ccc(Nc2ccccn2)nc1 [complex 13, [Zn(flrx)2(bipyam)]] | – | – | 291.2 (−17, −7); 322 (−5, −1) nm (%, nm)
9 | CN1CCN(c2c(F)cc3c(=O)c(C(=O)[O-])cn(CCF)c3c2F)CC1.CN1CCN(c2c(F)cc3c(=O)c(C(=O)[O-])cn(CCF)c3c2F)CC1.[Cu+2] [complex 1, [Cu(flrx)2]] | +42 mV | −10 mV | 294 (−15, −7); 335 (−24, −10) nm (%, nm)
10 | CN1CCN(c2c(F)cc3c(=O)c(C(=O)[O-])cn(CCF)c3c2F)CC1.CN1CCN(c2c(F)cc3c(=O)c(C(=O)[O-])cn(CCF)c3c2F)CC1.CO.CO.[Zn+2] [complex 3, [Zn(flrx)2(MeOH)2]] | – | – | 334 (−17, −1) nm (%, nm)
11 | CN1CCN(c2c(F)cc3c(=O)c(C(=O)[O-])cn(CCF)c3c2F)CC1.CN1CCN(c2c(F)cc3c(=O)c(C(=O)[O-])cn(CCF)c3c2F)CC1.[Ni+2].c1ccc(Nc2ccccn2)nc1 [complex 18, [Ni(flrx)2(bipyam)]] | +11 mV | +6 mV | 290 (−10, −5); 323 (−6, −3) nm (%, nm)
12 | CN1CCN(c2c(F)cc3c(=O)c(C(=O)[O-])cn(CCF)c3c2F)CC1.CN1CCN(c2c(F)cc3c(=O)c(C(=O)[O-])cn(CCF)c3c2F)CC1.CO.CO.[Co+2] [complex 4, [Co(flrx)2(MeOH)2]] | +28 mV | −11 mV | 289 (−8, −4); 330 (−7, −6) nm (%, nm)
13 | CN1CCN(c2c(F)cc3c(=O)c(C(=O)[O-])cn(CCF)c3c2F)CC1.[Cl-].[Cu+2].c1ccc(-c2ccccn2)nc1 [complex 6, [Cu(flrx)(bipy)Cl]] | +127 mV | −30 mV | 294 (−21, −8); 314 (−38,−4); 332 (−11, −9) nm (%, nm)
14 | CN1CCN(c2c(F)cc3c(=O)c(C(=O)[O-])cn(CCF)c3c2F)CC1.CN1CCN(c2c(F)cc3c(=O)c(C(=O)[O-])cn(CCF)c3c2F)CC1.[Zn+2].c1cnc2c(c1)ccc1cccnc12 [complex 14, [Zn(flrx)2(phen)]] | – | – | 288 (−1, −1); 332 (−10, −7) nm (%, nm)
15 | CN1CCN(c2c(F)cc3c(=O)c(C(=O)[O-])cn(CCF)c3c2F)CC1.CN1CCN(c2c(F)cc3c(=O)c(C(=O)[O-])cn(CCF)c3c2F)CC1.[Co+2].c1cnc2c(c1)ccc1cccnc12 [complex 17, [Co(flrx)2(phen)]] | +5 mV | +6 mV | 286.6 (−2,− 3); 333 (0, −9) nm (%, nm)
16 | CN1CCN(c2c(F)cc3c(=O)c(C(=O)[O-])cn(CCF)c3c2F)CC1.[Cl-].[Cu+2].c1ccc(Nc2ccccn2)nc1 [complex 7, [Cu(flrx)(bipyam)Cl]] | +126 mV | +19 mV | 294 (−18, −12); 316 (−8, 0) nm (%, nm)
17 | CN1CCN(c2c(F)cc3c(=O)c(C(=O)[O-])cn(CCF)c3c2F)CC1.CN1CCN(c2c(F)cc3c(=O)c(C(=O)[O-])cn(CCF)c3c2F)CC1.CO.CO.[Ni+2] [complex 5, [Ni(flrx)2(MeOH)2]] | −6 mV | +5 mV | 289 (−8, −3); 336 (−21, −10) nm (%, nm)
18 | CN1CCN(c2c(F)cc3c(=O)c(C(=O)[O-])cn(CCF)c3c2F)CC1.CN1CCN(c2c(F)cc3c(=O)c(C(=O)[O-])cn(CCF)c3c2F)CC1.[Ni+2].c1cnc2c(c1)ccc1cccnc12 [complex 19, [Ni(flrx)2(phen)]] | +29 mV | −12 mV | 288.4 (−7, −4); 333 (−15, −8) nm (%, nm)
19 | CN1CCN(c2c(F)cc3c(=O)c(C(=O)[O-])cn(CCF)c3c2F)CC1.CN1CCN(c2c(F)cc3c(=O)c(C(=O)[O-])cn(CCF)c3c2F)CC1.[Mn+2].c1cnc2c(c1)ccc1cccnc12 [complex 11, [Mn(flrx)2(phen)]] | +2 mV | +6 mV | 288 (−7, −4); 331 (−8, −6) nm (%, nm)
